Measured data: PubChem BioAssay AID686943 (Drosophila RNAi Screening Center, 2013)

- Purpose: 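Search across the genome for regulators of signalling from receptor tyrosine kinase to ERK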 (primary screen)
- Cells: Drosophila S2R+ haemocyte-like cells expressing YFP-tagged ERK (Rolled)
- Reagent: long dsRNA against Drosophila genes
- Challenge: insulin stimulation versus unstimulated cells; dose and duration not given
- Measured: 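Per-plate z-scores of phospho-ERK immunostaining normalised to YFP-tagged ERK, measured with and without insulin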
- Direction: replicate 1, z-score of dpERK with insulin and replicate 2, z-score of dpERK with insulin: higher = more active ERK per ERK-YFP after insulin; replicate 1, z-score of dpERK under basal conditions: higher = more basal active ERK per ERK-YFP; replicate 1, z-score of ERK-YFP with insulin: higher = more YFP-tagged ERK signal
The screen tested about 23,000 reagents; shown is a random part of those that have a named target and a result. 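Extra replicates exist only for a retested subset of genes; insulin dose and duration not given; both raised and lowered dpERK matter.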 Names joined by + are all predicted targets of the reagent. Not stated in the record: the amount of reagent, the time to read-out.

target | DRSC id | replicate 1, z-score of dpERK with insulin | replicate 2, z-score of dpERK with insulin | replicate 1, z-score of dpERK under basal conditions | replicate 1, z-score of ERK-YFP with insulin
CG18577 | DRSC15352 | -0.37 | -0.62 | 0.18 | -0.27
dyl | DRSC08466 | 0.13 | -0.83 | -0.75 | -0.73
dyl | DRSC08467 | 0.79 | 1.47 | -0.11 | -0.35
CG6567 + CG4565 | DRSC15599 | 0.03 | 0.2 | 0.23 | 0.86
ZIPIC | DRSC16349 | 0 | -0.58 | -0.64 | 0.05
CR14033 | DRSC02358 | 1.16 | 0.52 | -0.07 | 1.26
CG7601 | DRSC14131 | -0.91 | -0.08 | 0.54 | -0.38
Cht6 | DRSC18001 | -0.45 | 0.3 | 0.87 | 0.5
Cht6 | DRSC18002 | -0.2 | -1.75 | -1.98 | -0.84
Cht6 | DRSC18253 | 1.85 | 0.39 | 0.8 | 0.04
CG34244 | DRSC09304 | -1.24 | 0.12 | 0.71 | 0.75
CG12446 | DRSC20618 | 0.31 | 0.27 | 0.31 | -0.13
Chsy | DRSC20175 | -0.46 | -0.01 | -0.14 | 0.31
Chsy | DRSC20176 | 0.23 | 0.23 | -0.23 | -0.04
CG14589 | DRSC04866 | -0.41 | 0.6 | -0.09 | 0.64
eIF2Balpha | DRSC16332 | 0.87 | -1 | -0.19 | -0.92
Nacalpha | DRSC07477 | -0.37 | 0.57 | -0.76 | 0.04
CG14647 | DRSC12233 | 0.41 | 0.1 | 0.02 | -0.31
CG14647 | DRSC22497 | 0.03 | 0.07 | -1.3 | 1.33
CG14441 | DRSC17934 | -1.98 | -2.48 | -0.7 | 0.63
CG4854 | DRSC15663 | 0.27 | -1.13 | -1.98 | -0.33
CG12824 | DRSC06173 | 0.66 | 0.8 | -0.55 | -0.09
CG31808 | DRSC22962 | -0.26 | -0.75 | -0.75 | -0.2
CG31419 | DRSC15771 | -1.03 | 0 | 0.49 | 0.46
RPA2 | DRSC03184 | 0.11 | 0.01 | -1.13 | -0.33
NP15.6 | DRSC16756 | -0.13 | 0.84 | -0.6 | -0.44
CG9286 | DRSC16467 | 0.42 | 0.08 | -0.19 | 0.6
CG3124 | DRSC04339 | 1.86 | -3.28 | -1.54 | -2.77
Cp16 | DRSC11119 | -0.34 | -0.09 | -0.19 | 0.17
CG4502 | DRSC02755 | -1.09 | -0.68 | 0.05 | -2.4
Cpr78Ca | DRSC11651 | -0.48 | 0.16 | -0.22 | 0.69
msb1l | DRSC03572 | 0.23 | 0.96 | 0.04 | 0.56
CG10730 | DRSC02102 | 0.17 | 0.1 | 0.19 | 1.62
BomBc2 | DRSC06502 | 1.04 | 2.24 | 0.56 | -4.55
CG15464 (retired record) | DRSC18047 | 0.55 | 0.54 | 1.13 | -0.1
CG15464 (retired record) | DRSC22086 | 0.71 | -0.63 | 0.38 | -0.84
CG7384 | DRSC03053 | 0.18 | -1.99 | -0.09 | -0.03
Adck5 | DRSC10890 | -0.35 | -0.4 | -0.25 | 0.88
Pif1 | DRSC00582 | -0.13 | 0.46 | -0.51 | -0.97
CG3987 | DRSC15531 | 0 | -0.05 | -0.14 | 0
schuy | DRSC10284 | -0.86 | -0.59 | -0.54 | -0.03
CG8191 + CG12379 | DRSC19451 | -0.5 | 0.36 | -0.23 | 0.2
Crtp | DRSC04604 | 0.74 | 1.03 | -0.09 | -0.31
stv | DRSC09796 | 0.07 | 1.93 | -0.1 | 0.51
stv | DRSC10111 | 0.01 | -0.76 | 0.81 | 0.71
CG6654 | DRSC16084 | -1.56 | -0.27 | -0.11 | 0.9

The list goes on, starting with the last 2 of the part before.
target | DRSC id | replicate 1, z-score of dpERK with insulin | replicate 2, z-score of dpERK with insulin | replicate 1, z-score of dpERK under basal conditions | replicate 1, z-score of ERK-YFP with insulin
stv | DRSC10111 | 0.01 | -0.76 | 0.81 | 0.71
CG6654 | DRSC16084 | -1.56 | -0.27 | -0.11 | 0.9
CG8460 | DRSC03090 | -0.32 | -0.22 | -0.58 | 0.5
Pkg21D | DRSC00772 | 1.07 | -0.4 | -0.21 | -0.44
eIF3f2 | DRSC04903 | -0.33 | -0.93 | 0.18 | -0.78
CG5543 | DRSC04511 | 0.94 | 0.3 | -0.4 | 0.18
CG13659 | DRSC14660 | 0.87 | -0.28 | -0.01 | -0.26
Mink | DRSC14291 | 0.22 | 0.78 | 0.44 | -0.35
nht | DRSC01976 | 0.09 | -0.87 | 0.26 | 0.25
gt | DRSC18782 | -3.29 | -1.74 | -1.88 | 2.14
CG6893 | DRSC10742 | -0.73 | -0.65 | -0.14 | 0.49
CG2186 | DRSC19838 | -0.9 | -0.78 | 1.03 | 1.37
CecB | DRSC16605 | 0.62 | 0.17 | 1.23 | -0.19
CG42615 | DRSC05121 | 1.33 | 0.88 | 1.2 | 0.19
CG1785 | DRSC18139 | 0.19 | 0.16 | -1.14 | -0.25
CG11151 | DRSC19387 | -0.42 | -0.46 | 3.32 | 1.55
Mat1 | DRSC07465 | 0.42 | 0.07 | -0.46 | 0.83
Ephrin | DRSC17165 | -0.43 | -0.1 | -1.03 | 0.84
Arl2 | DRSC14117 | 0.11 | -0.22 | -0.22 | 0.19
mtTFB2 | DRSC15519 | 0.67 | 0.88 | -1.04 | 0.04
Or33a | DRSC03386 | 0.33 | 0.15 | 0.93 | 0.34
nrv3 | DRSC03097 | 0.17 | 0.03 | -1.84 | 0.47
eloF | DRSC15162 | 0.32 | 0.48 | 0.03 | 0.05
slmo + CG34179 | DRSC03143 | -1.39 | -0.75 | -0.81 | 0.34
mei-9 | DRSC18792 | -0.51 | -0.49 | -0.46 | 0.01
CG11353 | DRSC08182 | -0.18 | 0.99 | 0.4 | 0.66
CG18641 | DRSC00527 | 0.32 | -0.75 | 0.41 | -0.86
CG32240 | DRSC08093 | -0.3 | 0.1 | -0.05 | -0.42
superdeath | DRSC14868 | -0.12 | 0.18 | 1.8 | -0.19
